Results on 37 targets are retold here after the supplement of paper PMC12819154, “High-throughput peptide-centric local stability assay extends protein–ligand identification to membrane proteins, tissues and bacteria” (Nature Structural & Molecular Biology, 2025).

Chains of the proteins cited; added tags and fusions are not shown. Lines headed by an entry give the natural chain unless they say otherwise; changes in a name come on top.
UniProt Q9HC35: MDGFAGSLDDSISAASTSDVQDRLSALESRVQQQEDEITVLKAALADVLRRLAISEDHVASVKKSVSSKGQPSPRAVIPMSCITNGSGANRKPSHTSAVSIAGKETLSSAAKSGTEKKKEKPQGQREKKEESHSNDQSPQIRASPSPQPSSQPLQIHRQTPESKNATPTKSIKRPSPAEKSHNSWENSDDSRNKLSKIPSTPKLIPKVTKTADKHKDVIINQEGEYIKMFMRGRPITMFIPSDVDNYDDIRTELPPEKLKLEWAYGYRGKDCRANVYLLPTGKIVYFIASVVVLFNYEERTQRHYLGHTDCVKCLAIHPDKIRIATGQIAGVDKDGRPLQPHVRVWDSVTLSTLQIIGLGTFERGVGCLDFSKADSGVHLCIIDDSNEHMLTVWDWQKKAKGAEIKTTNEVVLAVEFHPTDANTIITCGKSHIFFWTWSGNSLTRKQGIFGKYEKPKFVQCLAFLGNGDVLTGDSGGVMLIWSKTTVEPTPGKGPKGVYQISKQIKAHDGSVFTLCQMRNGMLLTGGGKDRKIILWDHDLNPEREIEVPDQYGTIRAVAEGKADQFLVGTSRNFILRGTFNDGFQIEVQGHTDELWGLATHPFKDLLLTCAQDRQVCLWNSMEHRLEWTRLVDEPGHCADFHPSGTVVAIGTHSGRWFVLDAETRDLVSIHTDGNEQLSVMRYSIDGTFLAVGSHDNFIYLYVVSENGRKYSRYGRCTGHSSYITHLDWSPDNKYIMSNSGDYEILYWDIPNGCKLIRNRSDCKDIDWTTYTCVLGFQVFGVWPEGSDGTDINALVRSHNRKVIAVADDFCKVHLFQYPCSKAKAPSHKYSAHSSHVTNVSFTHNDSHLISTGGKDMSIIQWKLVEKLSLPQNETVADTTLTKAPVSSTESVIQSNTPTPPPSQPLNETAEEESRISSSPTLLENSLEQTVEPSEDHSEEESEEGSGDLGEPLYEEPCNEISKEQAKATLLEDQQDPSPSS
UniProt Q9H4Z2: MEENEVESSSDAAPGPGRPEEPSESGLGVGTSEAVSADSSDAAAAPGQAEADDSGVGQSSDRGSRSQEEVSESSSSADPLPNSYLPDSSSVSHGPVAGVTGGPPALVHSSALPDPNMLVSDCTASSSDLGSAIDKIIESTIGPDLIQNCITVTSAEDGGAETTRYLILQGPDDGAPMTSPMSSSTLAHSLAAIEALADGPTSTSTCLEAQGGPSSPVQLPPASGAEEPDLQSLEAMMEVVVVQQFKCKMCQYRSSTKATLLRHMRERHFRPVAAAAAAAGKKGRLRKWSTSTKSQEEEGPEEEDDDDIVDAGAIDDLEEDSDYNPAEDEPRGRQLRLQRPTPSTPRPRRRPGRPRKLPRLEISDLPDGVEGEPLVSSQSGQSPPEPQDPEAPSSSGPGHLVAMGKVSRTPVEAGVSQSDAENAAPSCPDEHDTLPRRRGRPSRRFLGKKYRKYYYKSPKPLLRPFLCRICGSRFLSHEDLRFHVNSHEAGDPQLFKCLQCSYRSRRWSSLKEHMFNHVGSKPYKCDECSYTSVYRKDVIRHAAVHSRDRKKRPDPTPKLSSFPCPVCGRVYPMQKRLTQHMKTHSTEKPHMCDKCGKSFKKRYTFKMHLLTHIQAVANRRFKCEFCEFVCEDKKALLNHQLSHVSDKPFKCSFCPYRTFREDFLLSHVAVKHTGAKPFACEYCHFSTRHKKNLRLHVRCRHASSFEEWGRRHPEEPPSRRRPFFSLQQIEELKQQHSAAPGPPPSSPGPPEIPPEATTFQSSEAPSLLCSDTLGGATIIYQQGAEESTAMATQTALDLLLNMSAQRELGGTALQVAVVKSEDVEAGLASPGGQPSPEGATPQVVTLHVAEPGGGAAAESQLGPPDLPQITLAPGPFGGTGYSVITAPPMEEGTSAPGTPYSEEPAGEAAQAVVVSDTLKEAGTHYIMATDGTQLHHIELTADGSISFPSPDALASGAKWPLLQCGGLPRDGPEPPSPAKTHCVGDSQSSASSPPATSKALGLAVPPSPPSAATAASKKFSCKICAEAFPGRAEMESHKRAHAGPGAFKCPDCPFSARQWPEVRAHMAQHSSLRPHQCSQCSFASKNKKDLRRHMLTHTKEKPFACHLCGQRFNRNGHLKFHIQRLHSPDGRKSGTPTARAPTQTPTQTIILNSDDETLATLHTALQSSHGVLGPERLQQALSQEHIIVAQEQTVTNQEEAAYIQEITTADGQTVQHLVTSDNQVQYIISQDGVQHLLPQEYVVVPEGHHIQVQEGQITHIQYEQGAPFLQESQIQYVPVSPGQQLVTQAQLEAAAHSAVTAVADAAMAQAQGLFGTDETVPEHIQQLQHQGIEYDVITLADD
UniProt Q9H9A5, whole entry: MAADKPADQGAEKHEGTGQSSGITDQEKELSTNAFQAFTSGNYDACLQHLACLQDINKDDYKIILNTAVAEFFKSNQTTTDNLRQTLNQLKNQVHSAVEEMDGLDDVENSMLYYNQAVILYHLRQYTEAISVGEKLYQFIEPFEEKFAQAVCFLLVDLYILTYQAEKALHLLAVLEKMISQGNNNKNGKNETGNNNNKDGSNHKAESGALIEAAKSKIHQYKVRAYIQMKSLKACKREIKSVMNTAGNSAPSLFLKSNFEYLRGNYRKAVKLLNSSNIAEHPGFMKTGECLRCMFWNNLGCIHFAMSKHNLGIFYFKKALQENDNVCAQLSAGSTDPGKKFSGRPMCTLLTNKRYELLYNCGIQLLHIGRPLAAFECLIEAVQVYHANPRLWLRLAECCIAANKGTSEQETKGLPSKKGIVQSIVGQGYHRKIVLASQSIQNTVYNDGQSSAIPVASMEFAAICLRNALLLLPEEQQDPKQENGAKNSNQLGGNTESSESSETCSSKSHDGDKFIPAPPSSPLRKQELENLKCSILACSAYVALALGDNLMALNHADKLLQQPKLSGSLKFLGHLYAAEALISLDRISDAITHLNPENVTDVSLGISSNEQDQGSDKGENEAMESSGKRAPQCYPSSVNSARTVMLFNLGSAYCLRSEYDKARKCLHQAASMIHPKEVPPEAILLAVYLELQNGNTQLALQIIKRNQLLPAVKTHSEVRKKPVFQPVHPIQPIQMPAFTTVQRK
UniProt Q9H825: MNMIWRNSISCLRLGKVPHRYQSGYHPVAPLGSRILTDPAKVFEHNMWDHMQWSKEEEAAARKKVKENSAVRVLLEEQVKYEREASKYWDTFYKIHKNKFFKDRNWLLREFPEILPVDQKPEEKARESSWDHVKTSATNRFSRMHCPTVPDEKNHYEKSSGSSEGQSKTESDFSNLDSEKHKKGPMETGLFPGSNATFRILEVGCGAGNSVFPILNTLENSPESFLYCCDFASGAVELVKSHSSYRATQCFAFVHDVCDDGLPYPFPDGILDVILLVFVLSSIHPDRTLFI
UniProt Q9H765, whole entry: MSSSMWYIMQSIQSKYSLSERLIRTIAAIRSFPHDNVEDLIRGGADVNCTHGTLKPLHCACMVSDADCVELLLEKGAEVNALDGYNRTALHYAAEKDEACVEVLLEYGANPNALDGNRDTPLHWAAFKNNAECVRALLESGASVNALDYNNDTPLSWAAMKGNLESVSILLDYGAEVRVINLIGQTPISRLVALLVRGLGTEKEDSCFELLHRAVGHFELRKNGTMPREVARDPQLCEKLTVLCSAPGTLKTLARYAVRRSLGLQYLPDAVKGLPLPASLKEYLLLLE
UniProt Q9H4L7: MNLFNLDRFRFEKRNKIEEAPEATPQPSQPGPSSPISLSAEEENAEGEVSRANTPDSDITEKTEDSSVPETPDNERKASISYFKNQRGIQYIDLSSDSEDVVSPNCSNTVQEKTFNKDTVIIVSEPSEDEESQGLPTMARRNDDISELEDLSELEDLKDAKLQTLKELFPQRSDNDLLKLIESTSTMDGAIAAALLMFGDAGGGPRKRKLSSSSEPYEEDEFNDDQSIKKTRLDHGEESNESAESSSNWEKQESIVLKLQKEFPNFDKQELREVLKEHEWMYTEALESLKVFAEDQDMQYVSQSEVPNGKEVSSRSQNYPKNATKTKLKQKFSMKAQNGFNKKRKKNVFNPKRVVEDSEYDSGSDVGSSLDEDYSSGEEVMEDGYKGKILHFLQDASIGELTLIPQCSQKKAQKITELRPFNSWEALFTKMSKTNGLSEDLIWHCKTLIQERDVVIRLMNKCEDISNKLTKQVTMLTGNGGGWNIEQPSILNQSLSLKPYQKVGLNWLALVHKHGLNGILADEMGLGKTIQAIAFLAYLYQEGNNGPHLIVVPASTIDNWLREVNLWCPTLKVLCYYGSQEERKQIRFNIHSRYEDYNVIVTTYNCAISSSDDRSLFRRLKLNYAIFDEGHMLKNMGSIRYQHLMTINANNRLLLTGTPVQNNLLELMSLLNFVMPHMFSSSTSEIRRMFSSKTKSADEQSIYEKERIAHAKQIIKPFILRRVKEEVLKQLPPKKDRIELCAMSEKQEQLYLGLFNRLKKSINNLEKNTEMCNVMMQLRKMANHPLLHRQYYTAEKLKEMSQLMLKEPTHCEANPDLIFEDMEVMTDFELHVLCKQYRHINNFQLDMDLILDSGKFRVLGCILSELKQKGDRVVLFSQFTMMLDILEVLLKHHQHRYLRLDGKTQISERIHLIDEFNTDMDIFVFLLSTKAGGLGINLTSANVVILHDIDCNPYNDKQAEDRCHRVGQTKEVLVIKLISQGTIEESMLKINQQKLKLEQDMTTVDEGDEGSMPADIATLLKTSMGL
UniProt Q9H5H4: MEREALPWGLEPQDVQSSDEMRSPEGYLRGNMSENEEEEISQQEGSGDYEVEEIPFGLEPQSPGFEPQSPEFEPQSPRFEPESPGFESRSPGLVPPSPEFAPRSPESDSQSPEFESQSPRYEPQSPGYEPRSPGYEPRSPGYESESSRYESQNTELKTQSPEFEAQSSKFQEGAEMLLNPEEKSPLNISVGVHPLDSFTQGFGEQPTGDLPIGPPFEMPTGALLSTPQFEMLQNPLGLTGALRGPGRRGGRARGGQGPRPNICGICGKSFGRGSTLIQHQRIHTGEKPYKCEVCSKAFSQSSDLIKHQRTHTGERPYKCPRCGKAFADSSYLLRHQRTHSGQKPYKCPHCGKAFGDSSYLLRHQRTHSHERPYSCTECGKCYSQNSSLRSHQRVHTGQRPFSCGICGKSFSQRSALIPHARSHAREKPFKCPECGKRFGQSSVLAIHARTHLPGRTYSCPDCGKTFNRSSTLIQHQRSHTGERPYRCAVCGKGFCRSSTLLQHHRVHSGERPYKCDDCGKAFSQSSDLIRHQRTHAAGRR
UniProt Q9HB40: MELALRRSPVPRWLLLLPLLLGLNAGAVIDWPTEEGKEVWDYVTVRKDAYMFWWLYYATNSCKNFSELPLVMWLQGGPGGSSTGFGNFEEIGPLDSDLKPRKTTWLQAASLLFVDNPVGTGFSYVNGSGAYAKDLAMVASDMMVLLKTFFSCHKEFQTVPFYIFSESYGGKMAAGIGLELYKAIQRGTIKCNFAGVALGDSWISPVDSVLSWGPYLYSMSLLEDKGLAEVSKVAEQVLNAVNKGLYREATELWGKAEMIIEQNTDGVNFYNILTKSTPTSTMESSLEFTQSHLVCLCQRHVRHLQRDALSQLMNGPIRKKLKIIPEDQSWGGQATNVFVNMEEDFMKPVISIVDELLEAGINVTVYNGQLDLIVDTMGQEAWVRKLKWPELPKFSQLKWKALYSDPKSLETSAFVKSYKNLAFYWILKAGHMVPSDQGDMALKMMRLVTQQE
UniProt Q9H201: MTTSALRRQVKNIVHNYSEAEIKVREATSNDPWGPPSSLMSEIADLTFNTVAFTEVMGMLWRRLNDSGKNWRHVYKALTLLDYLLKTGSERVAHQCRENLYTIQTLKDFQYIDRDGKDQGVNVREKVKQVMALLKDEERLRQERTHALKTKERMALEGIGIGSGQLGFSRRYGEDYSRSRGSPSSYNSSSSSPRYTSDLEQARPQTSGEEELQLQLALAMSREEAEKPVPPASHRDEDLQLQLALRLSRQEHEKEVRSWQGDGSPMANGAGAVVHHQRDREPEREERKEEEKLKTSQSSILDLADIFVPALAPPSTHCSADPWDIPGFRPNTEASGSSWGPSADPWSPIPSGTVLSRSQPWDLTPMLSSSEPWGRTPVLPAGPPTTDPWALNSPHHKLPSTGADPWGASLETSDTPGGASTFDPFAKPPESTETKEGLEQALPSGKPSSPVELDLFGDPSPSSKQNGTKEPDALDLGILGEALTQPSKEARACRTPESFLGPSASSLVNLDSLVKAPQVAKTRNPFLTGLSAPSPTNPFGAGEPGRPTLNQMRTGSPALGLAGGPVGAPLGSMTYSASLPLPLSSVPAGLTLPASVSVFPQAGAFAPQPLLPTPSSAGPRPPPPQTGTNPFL
UniProt Q9H2K0, whole entry, looked up: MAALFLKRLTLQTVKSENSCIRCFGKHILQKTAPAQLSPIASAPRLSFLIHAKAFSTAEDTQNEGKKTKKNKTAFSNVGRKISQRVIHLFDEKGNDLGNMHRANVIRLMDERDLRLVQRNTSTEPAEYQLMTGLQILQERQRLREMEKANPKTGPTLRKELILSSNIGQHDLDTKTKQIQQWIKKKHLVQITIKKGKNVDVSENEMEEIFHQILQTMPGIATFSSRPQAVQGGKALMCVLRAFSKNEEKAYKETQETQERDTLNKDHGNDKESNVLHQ

Some of the results follow. Most values lie at the level of the controls, where differences are scatter.

Compound in this assay: Cc1nc(Nc2ncc(C(=O)Nc3c(C)cccc3Cl)s2)cc(N2CCN(CCO)CC2)n1 [dasatinib]
The assay is described as follows: log2 fold change of tryptic peptide abundance, ligand vs vehicle (limited proteolysis) (log2 ratio); higher = more trypsin-susceptible (destabilized). The conditions noted are these: ligand concentration: 5 uM; sample: K562 cleared lysate.
For the target “UniProt Q9H330 (peptide sequence: AVGPSGGGGETPR, peptide start residue: 26)”, the log2 fold change was determined as 0.00469.
As for “UniProt Q9H5V7 (peptide sequence: YCNYASK, peptide start residue: 86)”, the figure is -0.428; as for “EML4 (peptide sequence: DMSIIQWK, peptide start residue: 856) (UniProt Q9HC35)”, -0.177.
The result for “UniProt Q9H6K1 (peptide sequence: GLHGPYPFGQS, peptide start residue: 288)” reads -0.08; that for “ZNF335 (peptide sequence: ELGGTALQVAVVK, peptide start residue: 807) (UniProt Q9H4Z2)”, 0.137.
As to “RNF41 (peptide sequence: SVVQQQQTR, peptide start residue: 140) (UniProt Q9H4P4)”, the log2 fold change was -0.192.
On to “CNOT10 (peptide sequence: AESGALIEAAK, peptide start residue: 205) (UniProt Q9H9A5)”, for which the log2 fold change is -0.286.
The result for “JPT2 (peptide sequence: MFQVPDSEGGR, peptide start residue: 1) (UniProt Q9H910)” reads -0.199; that for “MMADHC (peptide sequence: HLGFSVDDLGCCKVIR, peptide start residue: 251) (UniProt Q9H3L0)”, -0.142.
The result for “METTL8 (peptide sequence: TESDFSNLDSEKHK, peptide start residue: 169) (UniProt Q9H825)” reads -0.558; that for “AUNIP (peptide sequence: QAPVLLQTYR, peptide start residue: 242) (UniProt Q9H7T9)”, -0.369.
The result for “UniProt Q9H765 (peptide sequence: VINLIGQTPISR, peptide start residue: 179)” reads -0.223.
For “GORASP2 (peptide sequence: IPTRPFEEGK, peptide start residue: 202) (UniProt Q9H8Y8)”, the log2 fold change was -0.456.
For “SMARCAD1 (peptide sequence: VLGCILSELK, peptide start residue: 858) (UniProt Q9H4L7)”, the log2 fold change is -0.23.
The result for “PARVB (peptide sequence: ARPEDVVNLDLK, peptide start residue: 336) (UniProt Q9HBI1)” reads -0.74; that for “C19orf44 (peptide sequence: TDLPQTAESR, peptide start residue: 507) (UniProt Q9H6X5)”, -0.0893.
As for “CCDC134 (peptide sequence: ALREEEKR, peptide start residue: 199) (UniProt Q9H6E4)”, the figure is 0.611; as for “ACBD3 (peptide sequence: EDAMVEFVK, peptide start residue: 155) (UniProt Q9H3P7)”, -0.53; as for “UniProt Q9H9G7 (peptide sequence: SFFSAPEGYDHPLGGGR, peptide start residue: 181)”, -0.0438.
The result for “NCOA5 (peptide sequence: DDSYFDRYR, peptide start residue: 141) (UniProt Q9HCD5)” reads -0.568; that for “CPNE5 (peptide sequence: DIVQFVPFR, peptide start residue: 485) (UniProt Q9HCH3)”, -0.166; that for “UniProt Q9HCE3 (peptide sequence: HLFIVHK, peptide start residue: 1171)”, -0.279.
As to “ZNF768 (peptide sequence: SALIPHAR, peptide start residue: 414) (UniProt Q9H5H4)”, the log2 fold change worked out at 0.11.
As for “UniProt Q9HAH7 (peptide sequence: GTQIPDHFRPPLR, peptide start residue: 69)”, the figure is -0.195.
The result for “UniProt Q9H4R4 (peptide sequence: EIAKVEQQILK, peptide start residue: 191)” reads 0.0403; that for “FN3K (peptide sequence: LQAQLDLIEKDYADR, peptide start residue: 173) (UniProt Q9H479)”, 0.351; that for “PCIF1 (peptide sequence: EGIEPPRESFNR, peptide start residue: 224) (UniProt Q9H4Z3)”, 0.406.
As for “SLC38A10 (peptide sequence: VISDGEQGGQQGHR, peptide start residue: 963) (UniProt Q9HBR0)”, the figure is 0.0752.
On to “SCPEP1 (peptide sequence: MAAGIGLELYK, peptide start residue: 172) (UniProt Q9HB40)”, for which the log2 fold change turned out to be 0.267.
“NOL6 (peptide sequence: EILQDKDGLNQR, peptide start residue: 187) (UniProt Q9H6R4)”: the log2 fold change is -0.292.
As for “NEK6 (peptide sequence: KVQIFEMMDAK, peptide start residue: 75) (UniProt Q9HC98)”, the figure is 0.796; as for “UniProt Q9H1M0 (peptide sequence: DQSGLHYLQDADEEHVEISTR, peptide start residue: 160)”, 0.576; as for “ZFAND3 (peptide sequence: CFADFQK, peptide start residue: 35) (UniProt Q9H8U3)”, -0.14.
As for “FN3KRP (peptide sequence: GSSLNIMR, peptide start residue: 298) (UniProt Q9HA64)”, the figure is 0.145; as for “UniProt Q9H201 (peptide sequence: NIVHNYSEAEIK, peptide start residue: 12)”, 0.223.
As for “KANSL2 (peptide sequence: DGVSFCAEHVRR, peptide start residue: 83) (UniProt Q9H9L4)”, the figure is 0.126.
Turning to “MTIF3 (peptide sequence: DTLNKDHGNDKESNVLHQ, peptide start residue: 261) (UniProt Q9H2K0)”, the log2 fold change was 0.264.
